# Values joined by “and” are separate entries in the source; they are usually repeats but may differ in a detail not shown here. Equal entries are not always repeated. Inconclusive results, whose numbers are uncertain, are shown with a selection of clear calls. Where the call is inconclusive, the potency comes from a doubtful curve fit. Where a structure was tested more than once in an assay, its records may differ in their call. Active and inactive are the calls of the source. Unless noted, calls come from the whole dose curve; as a rule, active = well fitted curve in the direction sought with a large enough effect; inconclusive = small, poorly fitted or top-dose-only effect, or another doubt; inactive = no such curve, though single readings can be large; an effect the other way counts as inactive or inconclusive.
# Legend:
# [1] = Quantitative High-Throughput drug screen in 47 multiple myeloma cell lines against the NCATS MIPE library collection: UTMC2_PLB cell viability assay (AID 1919868); conditions: CellTiter-Glo ATP luminescence, 48 h; viability (% of DMSO control): at 45.8 µM (top of the series); note: nearly all actives have a fitted effect of over 55% in size
# Outline: (§1)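 Myeloma cells (500/well) treated with MIPE 4.0 compounds for 48 h at 37 °C, 5% CO2. Viability read as ATP via CellTiter-Glo luminescence after 5 min at RT; DMSO-only wells = 100%, media-only = 0% viability.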
# [2] = Quantitative High-Throughput drug screen in 47 multiple myeloma cell lines against the NCATS MIPE library collection: PE2_PLB cell viability assay (AID 1919869); note: nearly all actives have a fitted effect of over 35% in size
# Outline: as §1
# [3] = Quantitative High-Throughput drug screen in 47 multiple myeloma cell lines against the NCATS MIPE library collection: KMS11_JCRBsus cell viability assay (AID 1919873); note: nearly all actives have a fitted effect of over 50% in size
# Outline: as §1
# HEK293 = assay: Cytotoxic Profiling of Annotated Libraries Using Quantitative High-Throughput Screening (AID 1296008); conditions: Five cell lines viability, CellTiter-Glo ATP luminescence, 48-72 h; max response: stronger effect = lower value; note: nearly all actives have a fitted effect of over 60% in size; for max response: % is set by controls: 0 for no effect and ±100 for the full control effect
# Outline: (§2)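 Compounds were pin-transferred onto cells and incubated 48 or 72 hr at 37 degree Celsius, 95% humidity. CellTiter-Glo was added, plates sat 10 min at room temperature, then ATP-coupled luminescence was imaged as the viability read-out.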
# HaCat = assay: as above; conditions: Five cell lines viability, CellTiter-Glo ATP luminescence, 48-72 h; max response: stronger effect = lower value
# Outline: as §2
# [4] = Quantitative High-Throughput drug screen in 47 multiple myeloma cell lines against the NCATS MIPE library collection: PCM6_Riken cell viability assay (AID 1919870); conditions: CellTiter-Glo ATP, 48 h; viability (% of control): at 45.8 µM (top of the series); note: nearly all actives have a fitted effect of over 30% in size
# Outline: as §1
# [5] = Quantitative High-Throughput drug screen in 47 multiple myeloma cell lines against the NCATS MIPE library collection: RPMI8226_ATCC cell viability assay (AID 1919871); note: nearly all actives have a fitted effect of over 30% in size
# Outline: as §1
# [6] = Quantitative High-Throughput drug screen in 47 multiple myeloma cell lines against the NCATS MIPE library collection: OPM2_DSMZ cell viability assay (AID 1919872); note: nearly all actives have a fitted effect of over 30% in size
# Outline: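 Primary qHTS used for cherry-picking: cells at 500/well, library compounds for 48 h (37C, 5% CO2), luminescent ATP assay.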
# [7] = qHTS for identification of novel therapeutic agents for treatment of microphthalmiaassociated transcription factor (MiT) renal cell carcinoma (RCC) (AID 1963991; calls by dose curve); conditions: TFE3-RCC UOK109 viability, CellTiter-Glo, 48 h; active = Z-AUC below -0.8 in all three lines
# Outline: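 Three TFE3-fusion RCC lines (UOK109, UOK124, UOK145), 500 cells/well in complete medium, were treated with MIPE 4.0 compounds for 48 hours at 37 C. Viability was by CellTiter-Glo luminescence, normalized to DMSO (100%) and empty wells (0%); curves fitted over 11 concentrations.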
# KB-3-1 = assay: Cytotoxic Profiling of Annotated Libraries Using Quantitative High-Throughput Screening (AID 1296008); conditions: Five cell lines viability, CellTiter-Glo ATP luminescence, 48-72 h; max response: stronger effect = lower value; note: nearly all actives have a fitted effect of over 60% in size; for max response: % is set by controls: 0 for no effect and ±100 for the full control effect
# Outline: as §2
# NIH3T3 = assay: as above; conditions: Five cell lines viability, CellTiter-Glo ATP luminescence, 48-72 h; max response: stronger effect = lower value
# Outline: as §2
# [8] = Quantitative High-Throughput drug screen in 47 multiple myeloma cell lines against the NCATS MIPE library collection: KMS28BM_JCRB cell viability assay (AID 1919874); note: nearly all actives have a fitted effect of over 35% in size
# Outline: as §1
# MCC-13 = assay: qHTS assay to identify novel small-molecules to repurpose for Merkel cell carcinoma treatment (AID 1296009); conditions: MCC and control cell lines, CellTiter-Glo viability, 72 h; series mostly up to 46 µM; note: nearly all actives have a fitted effect of over 60% in size
# Outline: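 Cells exposed to NPC (8-point) and MIPE (11-point) compound dilutions for 72 hr at 37 degree celsius; viability read by CellTiter-Glo luminescence, normalized to no-cell and DMSO in-plate controls.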
# Potency is the fitted concentration of half-maximal effect.
structure (smiles),measurement,setting,value
O=C(O)c1cn(-c2ccc(F)cc2)c2cc(N3CCNCC3)c(F)cc2c1=O,Potency,[1],inactive
same,Potency,[2],inactive
same,Potency,[3],inactive
same,Potency,HEK293,"inconclusive: 37.2 µM [inhibitor, single point]"
same,max response,HEK293,inactive: -4.73%
same,Potency,HaCat,"inconclusive: 1.16 µM [inhibitor, single point]"
COc1ccc2c(Oc3ccc(NC(=O)c4c(C)n(CC(C)(C)O)n(-c5ccccc5)c4=O)nc3)ccnc2c1,Potency,[2],"inconclusive: 37.2 µM [cytotoxic, single point]"
same,Potency,[4],"inconclusive: 2.35 µM [cytotoxic, partial curve, poor fit]"
same,Potency,[5],"inconclusive: 1.87 µM [rising, partial curve, poor fit]"
same,Potency,[6],inactive
same,Potency,[3],"inconclusive: 23.5 µM [cytotoxic, single point]"
same,Potency,[7],"inconclusive: 16.6 µM [falling, partial curve, poor fit]"
same,Potency,HEK293,"inconclusive: 25.9 µM [inhibitor, single point]"
same,Potency,HaCat,active: 11.6 µM
same,Potency,KB-3-1,"inconclusive: 20.6 µM [inhibitor, single point]"
same,Potency,NIH3T3,"inconclusive: 743 nM [inhibitor, full curve]"
Cc1cc(C2CCCCC2)n(O)c(=O)c1,Potency,[1],"inconclusive: 5.26 µM [cytotoxic, full curve, poor fit]"
same,Potency,[5],"inconclusive: 7.43 µM [cytotoxic, partial curve]"
same,Potency,[3],active: 5.26 µM
same,Potency,[8],"inconclusive: 14.8 µM [cytotoxic, partial curve, poor fit]"
same,Potency,[7],"inconclusive: 14.8 µM [falling, partial curve]"
same,Potency,HEK293,"inconclusive: 750 nM [inhibitor, full curve, poor fit] and active: 5.9 µM"
same,Potency,KB-3-1,"inconclusive: 4.18 µM [inhibitor, full curve]"
same,Potency,MCC-13,"inconclusive: 16.6 µM [inhibitor, partial curve]"
CC=CCC=CCCC(=O)[C@H]1O[C@@H]1C(N)=O,Potency,[1],"inconclusive: 20.9 µM [cytotoxic, partial curve, poor fit]"
same,Potency,[5],"inconclusive: 1.18 µM [cytotoxic, full curve, poor fit]"
same,Potency,[6],"inconclusive: 23.5 µM [cytotoxic, single point]"
same,Potency,[3],active: 20.9 µM
same,Potency,HEK293,"inconclusive: 37.2 µM [inhibitor, single point]"
same,Potency,KB-3-1,"inconclusive: 33.2 µM [inhibitor, single point]"
NC(=O)c1cccc(-c2cc(Nc3ccc(OC(F)(F)F)cc3)ncn2)c1,Potency,[1],"inconclusive: 0.0332 µM [rising, full curve, poor fit]"
same,Potency,[2],active: 18.7 µM
same,Potency,[4],"inconclusive: 20.9 µM [cytotoxic, partial curve]"
same,Potency,[3],active: 29.6 µM
same,Potency,[8],"inconclusive: 37.2 µM [cytotoxic, single point]"
same,Potency,HEK293,"inconclusive: 37.2 µM [inhibitor, single point] and inconclusive: 29.1 µM [inhibitor, single point]"
same,Potency,KB-3-1,"inconclusive: 23.1 µM [inhibitor, partial curve, poor fit]"
COc1ccc2c(c1)CC[C@H]1[C@@H]2CC[C@]2(C)[C@@H](NCCCCCCN3C(=O)C=CC3=O)CC[C@H]12,Potency,[1],"inconclusive: 20.9 µM [rising, partial curve, poor fit]"
same,Potency,[4],inactive
same,Potency,[5],"inconclusive: 8.33 µM [cytotoxic, partial curve, poor fit]"
same,Potency,[6],"inconclusive: 10.5 µM [cytotoxic, partial curve, poor fit]"
same,Potency,[3],inactive
same,Potency,HEK293,"inconclusive: 37.2 µM [inhibitor, single point]"
same,max response,KB-3-1,inactive: -4.66%
CCn1cc(C(=O)O)c(=O)c2ccc(C)nc21,Potency,[2],inactive
same,Potency,[4],inactive
same,Potency,[5],inactive
same,Potency,[3],"inconclusive: 0.0023 µM [rising, full curve, poor fit]"
same,Potency,[8],"inconclusive: 0.0166 µM [rising, full curve, poor fit]"
same,Potency,[7],inconclusive: 0.00187 µM
same,Potency,HEK293,"inconclusive: 37.2 µM [inhibitor, single point]"
same,Potency,HaCat,"inconclusive: 8.41 µM [inhibitor, partial curve, poor fit]"
CCC(=O)OCC(=O)[C@@]1(OC(=O)CC)[C@@H](C)C[C@@H]2[C@H]3CCC4=CC(=O)C=C[C@]4(C)[C@@]3(F)[C@@H](O)C[C@@]21C,Potency,[2],"inconclusive: 18.7 µM [cytotoxic, partial curve, poor fit]"
same,Potency,[4],active: 7.43 µM
same,Potency,[6],"inconclusive: 23.5 µM [cytotoxic, single point]"
same,Potency,[8],"inconclusive: 23.5 µM [cytotoxic, single point]"
same,Potency,[7],"inconclusive: 3.72 µM [falling, full curve]"
same,Potency,HEK293,"inconclusive: 20.9 µM [inhibitor, partial curve]"
same,outcome,KB-3-1,inactive
COC(=O)N1CCN(Cc2cccc(NC(=O)Nc3ccc(C)nc3)c2F)CC1,Potency,[1],"inconclusive: 0.372 µM [cytotoxic, full curve, poor fit]"
same,Potency,[2],"inconclusive: 0.418 µM [cytotoxic, full curve, poor fit]"
same,Potency,[4],"inconclusive: 11.8 µM [cytotoxic, partial curve, poor fit]"
same,Potency,[3],"inconclusive: 37.2 µM [cytotoxic, single point]"
same,Potency,[8],"inconclusive: 29.6 µM [cytotoxic, single point]"
same,Potency,[7],inconclusive: 26.4 µM
same,Potency,HEK293,"inconclusive: 29.6 µM [inhibitor, single point] and inconclusive: 20.6 µM [inhibitor, single point]"
same,Potency,KB-3-1,"inconclusive: 23.1 µM [inhibitor, single point]"
same,Potency,MCC-13,inactive
CCCOc1ccc2nc(NC(=O)OC)[nH]c2c1,Potency,[1],active: 0.0209 µM
same,Potency,[4],"inconclusive: 0.0935 µM [cytotoxic, full curve]"
same,Potency,[5],"inconclusive: 0.0235 µM [cytotoxic, full curve]"
same,Potency,[6],active: 0.0105 µM
same,Potency,[3],"inconclusive: 0.003 µM [cytotoxic, full curve]"
same,Potency,[8],"inconclusive: 0.003 µM [cytotoxic, full curve, poor fit]"
same,Potency,[7],active: 0.00743 µM
same,Potency,HEK293,"inconclusive: 0.0066 µM [inhibitor, full curve, poor fit]"
same,Potency,KB-3-1,"active: 731 nM and inconclusive: 20.9 nM [inhibitor, full curve, poor fit]"
same,Potency,NIH3T3,"inconclusive: 750 nM [inhibitor, full curve, poor fit] and inconclusive: 14.8 nM [inhibitor, full curve, poor fit]"
same,Potency,MCC-13,"active: 188 nM and inconclusive: 118 nM [inhibitor, full curve]"
CC(C)C[C@H](NC(=O)[C@H](CCc1ccccc1)NC(=O)CN1CCOCC1)C(=O)N[C@@H](Cc1ccccc1)C(=O)N[C@@H](CC(C)C)C(=O)[C@@]1(C)CO1,Potency,[6],active: 0.0166 µM
same,Potency,[3],active: 0.0053 µM
same,Potency,[7],active: 1.48 µM
same,Potency,HEK293,active: 37.6 nM and active: 23.5 nM
same,Potency,KB-3-1,active: 1.84 µM and active: 132 nM
CCOC(=O)c1c(C)n(C)c2ccc(O)cc12,Potency,[1],inconclusive: 0.001 µM
same,Potency,[8],"inconclusive: 14.8 µM [cytotoxic, partial curve, poor fit]"
same,max response,HEK293,inactive: 0.41% and inactive: 2.4%
same,max response,NIH3T3,inactive: -5.37%
same,outcome,NIH3T3,inactive
O=C1NC(=O)C(=Cc2cccc(C(F)(F)F)c2)S1,Potency,[1],"inconclusive: 37.2 µM [cytotoxic, partial curve, poor fit]"
same,Potency,[2],"inconclusive: 16.6 µM [cytotoxic, partial curve]"
same,Potency,[4],"inconclusive: 20.9 µM [cytotoxic, partial curve, poor fit]"
same,Potency,[6],inactive
same,Potency,[3],"inconclusive: 33.2 µM [cytotoxic, single point]"
same,Potency,[8],inactive
same,Potency,[7],"inconclusive: 26.4 µM [falling, partial curve, poor fit]"
same,Potency,HEK293,"inconclusive: 37.2 µM [inhibitor, single point]"
same,Potency,KB-3-1,"inconclusive: 20.9 µM [inhibitor, partial curve]"
CC[C@H](CO)Nc1nc(NCc2ccccc2)c2ncn(C(C)C)c2n1,Potency,[5],"inconclusive: 37.2 µM [cytotoxic, single point]"
same,Potency,[8],"inconclusive: 37.2 µM [cytotoxic, single point]"
same,Potency,[7],"inconclusive: 18.7 µM [falling, partial curve]"
same,Potency,HEK293,"inconclusive: 29.6 µM [inhibitor, single point]"
same,Potency,HaCat,"inconclusive: 37.2 µM [inhibitor, single point]"
CNC[C@H](O)c1cccc(O)c1,Potency,[1],active: 0.0021 µM
same,Potency,[2],inactive
same,Potency,[4],"inconclusive: 0.0418 µM [rising, full curve, poor fit]"
same,Potency,[5],"inconclusive: 0.0019 µM [rising, full curve, poor fit]"
same,Potency,[3],inactive
same,Potency,[8],inactive
same,max response,HEK293,inactive: 1.65% and inactive: -9.71%
same,max response,NIH3T3,inactive: 3.51%
same,outcome,NIH3T3,inactive

# Fetched one by one from the list above (four):
structure (smiles),measurement,setting,value
CCCOc1ccc2nc(NC(=O)OC)[nH]c2c1,Potency,HEK293,"inconclusive: 0.0066 µM [inhibitor, full curve, poor fit]"
O=C(O)c1cn(-c2ccc(F)cc2)c2cc(N3CCNCC3)c(F)cc2c1=O,max response,HEK293,inactive: -4.73%
CCOC(=O)c1c(C)n(C)c2ccc(O)cc12,outcome,NIH3T3,inactive
CC=CCC=CCCC(=O)[C@H]1O[C@@H]1C(N)=O,Potency,[3],active: 20.9 µM

# Shown tab-delimited: entries from further up
structure (smiles)	measurement	setting	value
O=C(O)c1cn(-c2ccc(F)cc2)c2cc(N3CCNCC3)c(F)cc2c1=O	Potency	HEK293	inconclusive: 37.2 µM [inhibitor, single point]
same	max response	HEK293	inactive: -4.73%
same	Potency	HaCat	inconclusive: 1.16 µM [inhibitor, single point]
